# Reference: publication doi:10.1101/2023.05.10.540295
# Sequences of proteins named here, by UniProt entry; tags and fusion partners are left off. A change or cut given only in a name is not applied to a line headed by its entry. A line that says so, or that is headed by a name, gives the form on record, which may keep a tag or linker.
# UniProt Q96IY1: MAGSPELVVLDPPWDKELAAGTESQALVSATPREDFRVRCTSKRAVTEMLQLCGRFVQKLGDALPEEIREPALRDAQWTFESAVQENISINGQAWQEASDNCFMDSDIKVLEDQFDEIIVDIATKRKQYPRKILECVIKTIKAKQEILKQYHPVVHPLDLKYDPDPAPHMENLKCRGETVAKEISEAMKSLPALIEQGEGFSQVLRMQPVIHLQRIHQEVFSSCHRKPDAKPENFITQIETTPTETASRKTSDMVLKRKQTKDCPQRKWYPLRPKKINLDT
# GFP-NSL1^2TA (Q96IY1, form named): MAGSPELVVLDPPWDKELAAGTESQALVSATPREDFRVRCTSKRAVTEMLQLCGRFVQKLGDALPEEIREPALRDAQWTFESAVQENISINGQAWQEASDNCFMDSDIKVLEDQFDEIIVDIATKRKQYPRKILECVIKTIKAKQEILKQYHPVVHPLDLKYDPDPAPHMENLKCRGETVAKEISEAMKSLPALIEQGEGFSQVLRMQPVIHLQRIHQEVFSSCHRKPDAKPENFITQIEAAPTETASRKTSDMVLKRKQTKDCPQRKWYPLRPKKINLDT
# GFP-NSL1^2TD (Q96IY1, form named): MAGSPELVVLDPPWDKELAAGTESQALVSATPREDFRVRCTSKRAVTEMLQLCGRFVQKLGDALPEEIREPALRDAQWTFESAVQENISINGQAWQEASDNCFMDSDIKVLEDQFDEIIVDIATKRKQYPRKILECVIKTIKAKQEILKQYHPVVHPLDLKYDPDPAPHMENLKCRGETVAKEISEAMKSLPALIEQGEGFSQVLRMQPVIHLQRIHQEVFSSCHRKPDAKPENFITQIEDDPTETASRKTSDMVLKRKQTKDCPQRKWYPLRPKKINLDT
# UniProt O14777: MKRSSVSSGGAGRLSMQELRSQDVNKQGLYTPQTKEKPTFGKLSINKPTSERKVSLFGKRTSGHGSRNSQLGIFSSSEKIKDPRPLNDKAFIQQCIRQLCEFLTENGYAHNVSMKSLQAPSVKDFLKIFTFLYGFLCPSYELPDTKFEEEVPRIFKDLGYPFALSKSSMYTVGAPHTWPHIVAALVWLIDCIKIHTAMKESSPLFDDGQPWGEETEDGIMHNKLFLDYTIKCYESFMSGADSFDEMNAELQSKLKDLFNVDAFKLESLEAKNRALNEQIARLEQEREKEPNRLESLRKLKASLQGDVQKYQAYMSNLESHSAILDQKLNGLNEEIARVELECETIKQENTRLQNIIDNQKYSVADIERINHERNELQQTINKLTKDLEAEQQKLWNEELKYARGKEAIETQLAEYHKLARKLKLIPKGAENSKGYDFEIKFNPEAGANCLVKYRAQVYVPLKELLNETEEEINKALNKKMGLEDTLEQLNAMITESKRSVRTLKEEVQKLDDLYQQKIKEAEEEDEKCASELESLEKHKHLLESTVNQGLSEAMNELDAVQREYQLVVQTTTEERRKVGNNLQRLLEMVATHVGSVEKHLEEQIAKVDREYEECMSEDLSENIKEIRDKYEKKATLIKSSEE
# UniProt Q8NG31: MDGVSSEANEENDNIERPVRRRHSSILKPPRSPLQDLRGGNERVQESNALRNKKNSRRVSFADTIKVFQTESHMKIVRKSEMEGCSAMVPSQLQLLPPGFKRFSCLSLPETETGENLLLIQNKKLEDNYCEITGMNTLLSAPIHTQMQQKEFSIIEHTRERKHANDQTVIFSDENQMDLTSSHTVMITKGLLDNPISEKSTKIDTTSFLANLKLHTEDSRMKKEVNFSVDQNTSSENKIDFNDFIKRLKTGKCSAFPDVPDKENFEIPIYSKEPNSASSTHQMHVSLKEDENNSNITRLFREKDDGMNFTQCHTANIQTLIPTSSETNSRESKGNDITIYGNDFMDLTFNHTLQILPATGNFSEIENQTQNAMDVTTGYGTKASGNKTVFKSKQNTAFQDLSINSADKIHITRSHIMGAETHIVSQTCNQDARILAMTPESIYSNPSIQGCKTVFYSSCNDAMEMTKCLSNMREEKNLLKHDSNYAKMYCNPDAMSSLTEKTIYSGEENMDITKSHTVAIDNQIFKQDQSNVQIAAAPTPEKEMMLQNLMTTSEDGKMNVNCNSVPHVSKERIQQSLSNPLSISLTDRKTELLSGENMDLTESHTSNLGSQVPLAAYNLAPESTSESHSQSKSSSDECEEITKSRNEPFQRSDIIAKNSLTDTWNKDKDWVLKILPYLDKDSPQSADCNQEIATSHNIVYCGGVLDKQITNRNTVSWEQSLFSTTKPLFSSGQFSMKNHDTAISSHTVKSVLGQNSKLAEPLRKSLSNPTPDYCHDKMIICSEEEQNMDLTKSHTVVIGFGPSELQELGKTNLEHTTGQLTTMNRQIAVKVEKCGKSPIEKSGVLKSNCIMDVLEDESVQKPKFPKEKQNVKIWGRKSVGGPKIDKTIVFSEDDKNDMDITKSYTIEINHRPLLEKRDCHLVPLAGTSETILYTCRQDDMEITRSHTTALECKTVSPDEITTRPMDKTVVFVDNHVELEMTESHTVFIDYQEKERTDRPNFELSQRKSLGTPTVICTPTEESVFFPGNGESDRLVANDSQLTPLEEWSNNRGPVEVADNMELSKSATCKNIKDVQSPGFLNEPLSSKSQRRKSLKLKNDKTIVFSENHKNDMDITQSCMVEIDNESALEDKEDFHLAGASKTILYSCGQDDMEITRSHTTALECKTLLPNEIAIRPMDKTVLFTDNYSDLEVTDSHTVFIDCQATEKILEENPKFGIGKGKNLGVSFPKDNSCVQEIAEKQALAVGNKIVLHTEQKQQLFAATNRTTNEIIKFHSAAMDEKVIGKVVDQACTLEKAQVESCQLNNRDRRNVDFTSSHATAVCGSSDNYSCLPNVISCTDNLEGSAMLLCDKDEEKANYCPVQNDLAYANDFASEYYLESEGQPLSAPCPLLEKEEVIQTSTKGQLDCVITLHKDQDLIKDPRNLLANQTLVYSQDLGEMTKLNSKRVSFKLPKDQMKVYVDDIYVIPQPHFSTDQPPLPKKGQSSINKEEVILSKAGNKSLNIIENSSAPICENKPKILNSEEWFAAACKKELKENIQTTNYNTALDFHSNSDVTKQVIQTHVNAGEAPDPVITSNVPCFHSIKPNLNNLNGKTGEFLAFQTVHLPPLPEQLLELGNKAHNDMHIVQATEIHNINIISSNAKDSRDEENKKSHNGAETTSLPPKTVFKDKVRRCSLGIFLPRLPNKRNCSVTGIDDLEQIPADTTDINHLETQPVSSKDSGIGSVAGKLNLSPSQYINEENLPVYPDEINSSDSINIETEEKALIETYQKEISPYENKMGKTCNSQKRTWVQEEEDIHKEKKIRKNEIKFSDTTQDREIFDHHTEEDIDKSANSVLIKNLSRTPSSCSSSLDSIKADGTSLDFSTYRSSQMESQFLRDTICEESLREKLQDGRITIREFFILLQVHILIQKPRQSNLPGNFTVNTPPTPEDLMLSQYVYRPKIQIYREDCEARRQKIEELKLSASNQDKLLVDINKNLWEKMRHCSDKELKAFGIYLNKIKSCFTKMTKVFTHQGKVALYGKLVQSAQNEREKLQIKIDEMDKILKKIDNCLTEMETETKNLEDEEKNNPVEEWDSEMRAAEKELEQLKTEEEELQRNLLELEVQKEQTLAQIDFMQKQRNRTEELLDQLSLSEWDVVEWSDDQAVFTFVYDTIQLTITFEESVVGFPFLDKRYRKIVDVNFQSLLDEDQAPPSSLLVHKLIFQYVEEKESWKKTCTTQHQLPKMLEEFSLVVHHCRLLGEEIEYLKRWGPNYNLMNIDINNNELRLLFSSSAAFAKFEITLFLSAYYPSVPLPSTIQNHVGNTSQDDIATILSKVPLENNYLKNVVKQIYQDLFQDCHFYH
# No constants are given. Whether binding was seen depends on the method and setting. Binding seen in cells or lysates may run through a third protein. Some entries that bind do so weakly or less than the wild type.
# Tests used:
# Test in all cases: co-IP
# [1] = target: GFP-NSL1^Y270A (human) (UniProt Q96IY1)
# [2] = target: GFP-NSL1^WT (human) (UniProt Q96IY1)
# [3] = target: GFP-NSL1^2TA (human) (UniProt Q96IY1)
# [4] = target: GFP-NSL1^2TD (human) (UniProt Q96IY1)
binding [1],binding [2],binding [3],binding [4],Substance
no binding,binds,,,HEC1 (from UniProt O14777 1-642)
no binding,binds,binds,binds,KNL1 (from UniProt Q8NG31 1-2342)
